Measurements reported in US20130330294A1, “Serum Amyloid A (SAA) Overrides Regulatory T Cells (TREG) Anergy” (The Board of Trustees of the Leland Stanford Junior …, priority 2010, published 2013).
At least one compound was matched to its structure with a doubt left.

Experiments:
Assay type in all cases: cell-based, human
[1] = system: pERK1/2, pAKT, pSTAT3 in Treg and Teff; test: Phosphorylation of ERK1/2, AKT and STAT3 in Treg and Teff in suppression assays by FACS
Protocol: Detection of surface markers and intracellular molecules was performed. Antibodies used in these experiments included anti-human RAGE, SOCS3 (Abcam), CD14-FITC, DR-FITC, Foxp3-FITC, Lin (mixture of CD3, CD14, CD16, CD19, CD56)-FITC, CD14-PE, CD25-PE, CD40-PE, CD83-PE, CD127-PE, HVEM-PE, PDL2-PE, IL-1-PE, IL-6-PE, CD3-PerCP, CD4-PerCP, CD19-PerCP, CD25-PerCP, DR-PerCP, Lin-PerCP, CD3-APC, CD4-APC, CD14-APC, CD36-APC, CD86-APC, TLR2-APC, TLR4-APC, PDL1-APC, CCR7-APC, IL-6-APC, Lin-APC (Biolegend), Ki-67 FITC, pSTAT3 Alexa-647, pAKT Alexa-647, pERK1/2 Alexa-647 (BD Biosciences), and FPRL-1-APC(R&D System). Antibodies to mouse proteins used in these experiments included anti-CD25-PE, CD4-PerCP, CD11b-PerCP, CD115-APC, and Foxp3-APC (Biolegend). For in vitro experiments, to assay for expression of different surface and intracellular molecules in a specific cell subset (Treg, Teff or APC) in mixed cell cultures, the relevant subset was labeled with CFSE prior to suppression assays. Cells were pelleted at various time points and underwent standard staining protocols of the manufacturers. For in vivo experiments, cells were harvested from the peritoneal cavity and underwent flow cytometric analysis.

Treg and Teff = test: CFSE-based Treg suppression assay with APC; conditions: Treg pre-treated with 100 μM for 24 hours
Protocol: Carboxyfluorescein diacetate succinimidyl ester (CFSE) dilution assay was used for measuring T cell proliferation in suppression assays. Briefly, Treg were labeled with CFSE using Cell Tracer CFSE Cell Proliferation kit (Molecular Probes) at a final concentration of 10 μM, according to manufacturer's instructions. Assays with labeled cells were performed as described for 3H-thymidine-based suppression assays. After 7 days of culture, cells were harvested and dye dilution was analyzed by flow cytometry. Stimulation assays were set up similarly with allogeneic irradiated APC and only one type of CFSE-labeled T cells (either Treg or Teff). For APC fixation, these cells were first re-suspended in PBS+10% FBS+1% paraformaldehyde for […] at 37° C. Fixed cells were pelleted by centrifugation, washed and then cultured in complete media.
To evaluate effects of plasma on suppression assays and immune cell cultures, frozen plasma samples were thawed at 25° C. and debris were removed with sterile 40 μm filters (BD Biosciences). All plasma samples were tested in duplicates or triplicates. […] To pharmacologically modulate SOCS3, isolated Treg were cultured with forskolin (Calbiochem) at different concentrations and analyzed for SOCS3 expression at different time points.

SOCS3 in Treg = test: SOCS3 expression in forskolin-treated Treg by intracellular staining
Protocol: To evaluate effects of plasma on suppression assays and immune cell cultures, frozen plasma samples were thawed at 25° C. and debris were removed with sterile 40 μm filters (BD Biosciences). All plasma samples were tested in duplicates or triplicates. To control for variations in suppressive and proliferative potentials of Treg and Teff, respectively, both HC and SJIA plasma samples were used in parallel suppression assays with the same set of purified cells for each round of experiments. In addition, fold change in 3H-thymidine cpm in assays with plasma compared to those in complete media alone, was computed to analyze the effects of plasma in suppression assays or stimulation assays. In CFSE assays, percentage of proliferating cells (shown by dye dilution) was used to analyze the effects of plasma on cell proliferation. IL-1Ra, neutralizing antibody against IL-6 and TNF-α (R&D System), and recombinant IL-1, IL-6 (Peprotech) were used to evaluate the roles of these cytokines in suppression assays. Recombinant SAA (Peprotech) was used at different concentrations in suppression assays in the presence of polymixin (5 μg/ml). […] To pharmacologically modulate SOCS3, isolated Treg were cultured with forskolin (Calbiochem) at different concentrations and analyzed for SOCS3 expression at different time points. […]

SMILES: C=C[C@@]1(C)CC(=O)[C@]2(O)[C@@]3(C)[C@@H](O)CCC(C)(C)[C@@H]3[C@H](O)[C@H](OC(C)=O)[C@@]2(C)O1 [forskolin]
- activation of ERK1/2 and STAT3 in Teff in the presence of forskolin-treated Treg ([1]; SJIA plasma vs HC plasma, day 4): modestly enhanced
- ERK1/2 and STAT3 activation in Teff co-cultured with forskolin-treated vs untreated Treg ([1]; assays with SJIA plasma): modest increase
- activation of AKT in forskolin-treated Treg ([1]; day 4, assays with SJIA plasma): abrogated
- pERK1/2 in forskolin-treated Treg ([1]; day 4, assays with SJIA plasma): significantly reduced
- pSTAT3 in forskolin-treated Treg ([1]; day 4, assays with SJIA plasma): significantly reduced
- activation of ERK1/2, AKT and STAT3 in forskolin-treated Treg compared to untreated Treg ([1]; same SJIA plasma): significant decrease
- proliferation of forskolin-treated Treg in response to SJIA plasma (Treg and Teff): no longer proliferated
- suppression of Teff proliferation by forskolin-treated Treg (Treg and Teff; assays with SJIA plasma): still suppressed Teff proliferation
- SOCS3 expression by forskolin-treated Treg during the suppression assays (SOCS3 in Treg; Treg pre-treated with 100 μM for 24 hours): remained at a level comparable to that in Teff
- SOCS3 expression by forskolin-treated Treg (SOCS3 in Treg; different concentrations and time points): increase in SOCS3 expression
